Assay results taken from the supplement of paper PMC12067093, “Discovery and optimisation of a covalent ligand for TRIM25 and its application to targeted protein ubiquitination” (Chemical Science, 2025).
This is one part of the list.

Chains of the proteins cited; added tags and fusions are not shown. Lines headed by an entry give the natural chain unless they say otherwise; changes in a name come on top.
UniProt P02751, whole entry, looked up: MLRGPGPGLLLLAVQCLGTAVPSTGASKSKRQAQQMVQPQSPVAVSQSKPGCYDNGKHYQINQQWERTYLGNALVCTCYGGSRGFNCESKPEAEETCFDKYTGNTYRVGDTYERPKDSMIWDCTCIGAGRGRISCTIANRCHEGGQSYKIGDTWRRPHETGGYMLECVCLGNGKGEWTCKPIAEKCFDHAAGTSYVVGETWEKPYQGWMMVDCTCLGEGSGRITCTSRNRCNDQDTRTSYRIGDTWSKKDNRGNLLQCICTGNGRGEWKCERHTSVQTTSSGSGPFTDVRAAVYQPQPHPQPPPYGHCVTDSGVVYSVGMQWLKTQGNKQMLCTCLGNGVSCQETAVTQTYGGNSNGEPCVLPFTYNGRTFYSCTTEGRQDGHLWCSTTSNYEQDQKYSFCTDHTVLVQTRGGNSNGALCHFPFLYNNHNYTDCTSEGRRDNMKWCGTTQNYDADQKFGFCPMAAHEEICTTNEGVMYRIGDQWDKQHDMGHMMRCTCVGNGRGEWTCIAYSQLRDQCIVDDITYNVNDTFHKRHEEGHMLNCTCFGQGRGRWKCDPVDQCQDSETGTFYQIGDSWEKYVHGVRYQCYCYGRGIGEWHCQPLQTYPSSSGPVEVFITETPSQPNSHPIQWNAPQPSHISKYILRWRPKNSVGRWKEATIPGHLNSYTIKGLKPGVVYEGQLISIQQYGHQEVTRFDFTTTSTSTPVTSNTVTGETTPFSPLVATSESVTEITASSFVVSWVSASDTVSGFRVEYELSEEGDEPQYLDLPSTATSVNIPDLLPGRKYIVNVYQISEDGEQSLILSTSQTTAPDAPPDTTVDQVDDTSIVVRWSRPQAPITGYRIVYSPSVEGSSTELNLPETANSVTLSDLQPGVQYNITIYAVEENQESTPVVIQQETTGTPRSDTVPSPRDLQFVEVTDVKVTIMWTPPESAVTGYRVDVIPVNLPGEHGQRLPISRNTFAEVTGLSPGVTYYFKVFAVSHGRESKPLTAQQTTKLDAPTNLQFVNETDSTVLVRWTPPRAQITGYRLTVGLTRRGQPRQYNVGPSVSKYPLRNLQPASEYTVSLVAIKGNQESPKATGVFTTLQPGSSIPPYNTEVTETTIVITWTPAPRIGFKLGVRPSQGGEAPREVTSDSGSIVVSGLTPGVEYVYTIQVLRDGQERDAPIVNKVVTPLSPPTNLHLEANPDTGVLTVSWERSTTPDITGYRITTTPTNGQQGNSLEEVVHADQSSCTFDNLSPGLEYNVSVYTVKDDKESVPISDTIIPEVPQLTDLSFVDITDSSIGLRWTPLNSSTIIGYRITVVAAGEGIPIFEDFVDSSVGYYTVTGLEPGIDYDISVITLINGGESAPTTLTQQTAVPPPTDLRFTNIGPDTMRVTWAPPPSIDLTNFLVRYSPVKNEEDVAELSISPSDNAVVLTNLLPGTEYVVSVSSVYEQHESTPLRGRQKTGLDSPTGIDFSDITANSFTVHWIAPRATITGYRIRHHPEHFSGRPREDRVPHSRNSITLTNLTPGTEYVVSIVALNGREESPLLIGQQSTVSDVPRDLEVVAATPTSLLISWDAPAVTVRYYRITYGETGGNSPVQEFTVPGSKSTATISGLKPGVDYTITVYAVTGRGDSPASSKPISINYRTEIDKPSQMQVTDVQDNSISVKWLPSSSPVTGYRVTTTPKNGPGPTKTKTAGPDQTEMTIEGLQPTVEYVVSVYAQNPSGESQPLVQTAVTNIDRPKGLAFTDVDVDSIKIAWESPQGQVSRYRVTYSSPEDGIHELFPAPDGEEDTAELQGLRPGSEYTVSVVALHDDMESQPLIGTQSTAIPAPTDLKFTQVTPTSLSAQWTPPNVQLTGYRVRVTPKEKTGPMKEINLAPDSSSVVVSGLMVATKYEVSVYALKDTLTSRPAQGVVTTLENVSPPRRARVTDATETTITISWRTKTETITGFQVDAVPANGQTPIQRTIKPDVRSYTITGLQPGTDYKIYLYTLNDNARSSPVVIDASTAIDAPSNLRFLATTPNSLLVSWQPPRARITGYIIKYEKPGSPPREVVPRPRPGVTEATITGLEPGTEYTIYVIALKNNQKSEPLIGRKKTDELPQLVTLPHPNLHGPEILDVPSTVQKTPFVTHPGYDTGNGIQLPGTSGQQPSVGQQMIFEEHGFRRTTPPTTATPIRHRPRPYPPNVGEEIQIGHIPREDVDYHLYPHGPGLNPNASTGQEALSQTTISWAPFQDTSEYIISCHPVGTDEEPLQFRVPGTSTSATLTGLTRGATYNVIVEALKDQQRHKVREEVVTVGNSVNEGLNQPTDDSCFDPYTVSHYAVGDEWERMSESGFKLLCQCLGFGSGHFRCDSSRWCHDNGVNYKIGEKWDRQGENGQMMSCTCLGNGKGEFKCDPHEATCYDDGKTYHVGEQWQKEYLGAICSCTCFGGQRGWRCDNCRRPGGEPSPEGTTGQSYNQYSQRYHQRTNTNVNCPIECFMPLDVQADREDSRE
UniProt Q14318: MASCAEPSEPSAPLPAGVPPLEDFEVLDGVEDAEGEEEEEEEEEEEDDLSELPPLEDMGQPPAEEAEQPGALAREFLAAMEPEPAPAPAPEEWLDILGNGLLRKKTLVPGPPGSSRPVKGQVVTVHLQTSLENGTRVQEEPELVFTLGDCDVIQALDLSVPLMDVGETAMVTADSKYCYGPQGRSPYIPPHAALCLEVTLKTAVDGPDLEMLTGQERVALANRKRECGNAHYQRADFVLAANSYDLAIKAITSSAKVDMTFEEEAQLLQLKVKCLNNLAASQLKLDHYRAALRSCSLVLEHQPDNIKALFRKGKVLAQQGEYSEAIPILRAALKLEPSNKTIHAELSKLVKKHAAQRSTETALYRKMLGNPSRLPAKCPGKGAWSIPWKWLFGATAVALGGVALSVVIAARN
UniProt P51116, whole entry, looked up: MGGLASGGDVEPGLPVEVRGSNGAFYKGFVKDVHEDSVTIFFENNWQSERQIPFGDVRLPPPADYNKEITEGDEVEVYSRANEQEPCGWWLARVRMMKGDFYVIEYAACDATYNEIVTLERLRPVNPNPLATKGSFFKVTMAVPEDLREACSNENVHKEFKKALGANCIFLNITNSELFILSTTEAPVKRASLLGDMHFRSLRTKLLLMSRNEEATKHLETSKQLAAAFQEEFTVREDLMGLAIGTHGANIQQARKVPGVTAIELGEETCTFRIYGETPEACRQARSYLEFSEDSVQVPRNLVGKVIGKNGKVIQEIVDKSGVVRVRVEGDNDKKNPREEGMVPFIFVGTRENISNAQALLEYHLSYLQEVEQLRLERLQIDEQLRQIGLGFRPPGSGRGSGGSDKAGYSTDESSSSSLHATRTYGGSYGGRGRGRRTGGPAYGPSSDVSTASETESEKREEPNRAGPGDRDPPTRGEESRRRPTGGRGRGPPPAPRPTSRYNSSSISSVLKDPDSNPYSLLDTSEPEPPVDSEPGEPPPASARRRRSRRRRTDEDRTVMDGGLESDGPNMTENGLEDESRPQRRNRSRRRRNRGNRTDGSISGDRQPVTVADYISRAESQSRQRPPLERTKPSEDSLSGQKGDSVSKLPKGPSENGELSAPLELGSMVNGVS
UniProt P02792: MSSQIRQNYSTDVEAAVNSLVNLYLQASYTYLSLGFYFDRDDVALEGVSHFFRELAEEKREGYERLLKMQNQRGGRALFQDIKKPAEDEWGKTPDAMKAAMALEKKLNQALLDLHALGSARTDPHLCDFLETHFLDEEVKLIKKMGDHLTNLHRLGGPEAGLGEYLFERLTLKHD
UniProt O75369, whole entry, looked up: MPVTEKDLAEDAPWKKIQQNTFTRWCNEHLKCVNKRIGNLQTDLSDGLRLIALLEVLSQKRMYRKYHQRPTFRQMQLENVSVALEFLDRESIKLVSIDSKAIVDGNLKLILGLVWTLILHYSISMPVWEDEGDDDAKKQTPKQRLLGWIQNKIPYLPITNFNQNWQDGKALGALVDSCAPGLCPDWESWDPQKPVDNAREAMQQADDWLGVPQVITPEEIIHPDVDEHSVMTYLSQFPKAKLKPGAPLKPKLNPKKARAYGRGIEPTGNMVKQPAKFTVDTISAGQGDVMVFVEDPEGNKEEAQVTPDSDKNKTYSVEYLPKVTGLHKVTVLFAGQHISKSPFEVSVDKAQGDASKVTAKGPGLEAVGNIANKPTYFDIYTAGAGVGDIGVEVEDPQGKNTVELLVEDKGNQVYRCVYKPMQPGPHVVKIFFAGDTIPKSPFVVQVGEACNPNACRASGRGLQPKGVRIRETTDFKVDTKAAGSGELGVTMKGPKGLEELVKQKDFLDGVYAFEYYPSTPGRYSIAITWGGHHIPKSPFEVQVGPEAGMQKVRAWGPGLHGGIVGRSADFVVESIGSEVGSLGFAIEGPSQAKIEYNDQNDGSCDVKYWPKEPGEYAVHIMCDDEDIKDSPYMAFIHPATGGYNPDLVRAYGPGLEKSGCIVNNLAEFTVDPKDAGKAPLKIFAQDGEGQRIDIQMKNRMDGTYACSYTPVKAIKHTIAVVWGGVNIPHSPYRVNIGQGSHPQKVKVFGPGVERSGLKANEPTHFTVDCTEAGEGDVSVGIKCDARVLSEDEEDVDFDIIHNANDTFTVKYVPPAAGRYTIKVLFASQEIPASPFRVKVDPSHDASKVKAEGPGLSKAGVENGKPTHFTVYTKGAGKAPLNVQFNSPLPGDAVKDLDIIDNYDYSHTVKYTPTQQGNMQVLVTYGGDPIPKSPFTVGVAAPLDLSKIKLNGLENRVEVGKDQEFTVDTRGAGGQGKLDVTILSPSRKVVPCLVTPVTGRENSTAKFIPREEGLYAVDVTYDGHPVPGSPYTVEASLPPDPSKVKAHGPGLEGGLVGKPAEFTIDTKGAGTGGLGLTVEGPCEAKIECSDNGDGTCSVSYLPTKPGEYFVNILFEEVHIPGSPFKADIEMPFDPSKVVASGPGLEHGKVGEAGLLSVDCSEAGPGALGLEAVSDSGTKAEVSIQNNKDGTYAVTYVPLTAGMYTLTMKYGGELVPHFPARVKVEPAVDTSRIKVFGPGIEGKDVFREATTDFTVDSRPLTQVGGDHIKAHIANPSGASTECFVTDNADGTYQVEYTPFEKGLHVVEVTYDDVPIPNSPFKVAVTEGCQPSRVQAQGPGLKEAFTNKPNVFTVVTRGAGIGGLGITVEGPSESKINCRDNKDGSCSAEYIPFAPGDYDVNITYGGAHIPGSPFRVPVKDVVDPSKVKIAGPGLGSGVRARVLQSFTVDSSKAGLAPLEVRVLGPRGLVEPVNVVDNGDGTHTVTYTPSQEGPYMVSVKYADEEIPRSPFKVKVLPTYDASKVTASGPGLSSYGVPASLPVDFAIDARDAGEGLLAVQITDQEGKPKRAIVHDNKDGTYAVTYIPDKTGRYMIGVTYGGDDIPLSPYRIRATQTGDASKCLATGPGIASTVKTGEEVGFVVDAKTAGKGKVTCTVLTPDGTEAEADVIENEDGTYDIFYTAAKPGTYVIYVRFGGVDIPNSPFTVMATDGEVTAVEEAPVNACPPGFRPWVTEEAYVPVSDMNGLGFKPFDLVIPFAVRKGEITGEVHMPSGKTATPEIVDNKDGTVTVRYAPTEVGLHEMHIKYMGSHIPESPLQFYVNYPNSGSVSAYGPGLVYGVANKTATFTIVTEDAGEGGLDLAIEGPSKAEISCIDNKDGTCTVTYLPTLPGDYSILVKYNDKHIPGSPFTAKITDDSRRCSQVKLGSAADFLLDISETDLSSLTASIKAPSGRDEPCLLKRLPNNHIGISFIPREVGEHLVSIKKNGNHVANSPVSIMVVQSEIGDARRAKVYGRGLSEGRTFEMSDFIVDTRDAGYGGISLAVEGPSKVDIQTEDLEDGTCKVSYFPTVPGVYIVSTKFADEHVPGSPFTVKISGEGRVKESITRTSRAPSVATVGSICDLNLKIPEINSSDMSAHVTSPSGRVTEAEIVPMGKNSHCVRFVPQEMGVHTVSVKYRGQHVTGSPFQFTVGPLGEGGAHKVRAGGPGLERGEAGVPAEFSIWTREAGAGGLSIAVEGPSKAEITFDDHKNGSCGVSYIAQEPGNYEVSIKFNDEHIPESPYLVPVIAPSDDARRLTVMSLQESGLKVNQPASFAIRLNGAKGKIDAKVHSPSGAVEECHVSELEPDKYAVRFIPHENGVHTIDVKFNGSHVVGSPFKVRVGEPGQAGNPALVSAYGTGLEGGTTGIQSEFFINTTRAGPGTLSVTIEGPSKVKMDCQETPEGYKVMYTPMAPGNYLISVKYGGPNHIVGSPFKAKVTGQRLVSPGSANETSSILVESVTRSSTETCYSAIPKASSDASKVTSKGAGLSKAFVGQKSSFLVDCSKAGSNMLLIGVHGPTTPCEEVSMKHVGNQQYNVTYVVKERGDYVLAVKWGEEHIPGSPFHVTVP

Compound: CC1Cc2ccccc2N1C(=O)C1CCCN(C1)C(=O)CCl (mixture of isomers) [TRIM25 ligand 11 (diastereomer mixture)]
Test: probe-labelled cysteine peptide fold change vs DMSO (competition) (log2 fold change); higher = less target engagement (more negative = stronger competition)
Details: THP-1, incubation time: 4 h
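Also: competitive chemoproteomic profiling in live THP-1 cells with an iodoacetamide desthiobiotin (IA-DTB) probe, comparing probe-labelled peptide intensities in compound-treated cells against DMSO-treated controls.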

Target	probe-labelled cysteine peptide fold change (10 µM)	probe-labelled cysteine peptide fold change (50 µM)
FHL2_Q14192_251_QWHNDCFNCK (UniProt Q14192)	0.0366	0.0232
FGD3_Q5JSP0_184_RLHLLDQVFCTR (UniProt Q5JSP0)	-0.0134	0.089
FOS_P01100_204_EKLEFILAAHRPACK (UniProt P01100)	-0.296	-0.128
FHOD1_Q9Y613_936_LTHFLDQCAR (UniProt Q9Y613)	-0.0135	0.128
FXR1_P51114_129_CTVDVPEDLR (UniProt P51114)	0.181	0.0786
FUBP3_Q96I24_125_IQIASESSGIPERPCVLTGTPESIEQAKR (UniProt Q96I24)	-0.00226	0.228
FN1_P02751_386_QDGHLWCSTTSNYEQDQK (UniProt P02751)	0.296	-0.183
FHL1_Q13642_150_GEDFYCVTCHETK (UniProt Q13642)	0.0477	0.0277
FTSJ3_Q8IY81_293_VCCQDIR (UniProt Q8IY81)	0.143	0.0618
FYCO1_Q9BQS8_882_CSSEEAQLEHAELQEQLHR (UniProt Q9BQS8)	0.112	0.048
FKBP8_Q14318_195_SPYIPPHAALCLEVTLK (UniProt Q14318)	0.0328	0.193
FXR2_P51116_151_EACSNENVHK (UniProt P51116)	0.36	0.06
FSCN1_Q16658_397_GEHGFIGCR (UniProt Q16658)	0.015	0.047
FTL_P02792_127_TDPHLCDFLETHFLDEEVK (UniProt P02792)	0.0234	0.276
G3BP1_Q13283_73_VMSQNFTNCHTK (UniProt Q13283)	-0.0583	-0.186
FKBP8_Q14318_227_KRECGNAHYQR (UniProt Q14318)	-0.184	-0.23
GADD45GIP1_Q8TAE8_124_EQHIAECMAK (UniProt Q8TAE8)	0.324	0.377
FGG_P02679_35_DNCCILDER (UniProt P02679)	0.542	0.22
FUCA2_Q9BTY2_294_WENCMTIDK (UniProt Q9BTY2)	0.00355	0.0164
FKBP15_Q5T1M5_809_CEHLLASAK (UniProt Q5T1M5)	-0.0577	-0.0854

Laid out differently: results already given
Target,probe-labelled cysteine peptide fold change (10 µM),probe-labelled cysteine peptide fold change (50 µM)
FKBP8_Q14318_227_KRECGNAHYQR (UniProt Q14318),-0.184,-0.23
GADD45GIP1_Q8TAE8_124_EQHIAECMAK (UniProt Q8TAE8),0.324,0.377

Further records follow.

Target	probe-labelled cysteine peptide fold change (10 µM)	probe-labelled cysteine peptide fold change (50 µM)
FNBP1_Q96RU3_555_VLATDFDDEFDDEEPLPAIGTCK (UniProt Q96RU3)	-0.0784	-0.037
FXR2_P51116_151_VTMAVPEDLREACSNENVHK (UniProt P51116)	-0.0855	-0.0345
FKBP4_Q02790_396_TQLAVCQQR (UniProt Q02790)	0.0681	0.0787
FLNB_O75369_2115_APSVATVGSICDLNLK (UniProt O75369)	-0.0796	-0.0239
FLOT2_Q14254_56_CEDVETAEGVALTVTGVAQVK (UniProt Q14254)	-0.0392	0.0252
FLNB_O75369_991_VVPCLVTPVTGR (UniProt O75369)	0.0198	0.0861
FN1_P02751_141_CHEGGQSYK (UniProt P02751)	0.158	-0.144
GABPB1_Q06547_331_RQCIEIIENR (UniProt Q06547)	0.0238	-0.198
FOCAD_Q5VW36_392_QQLALNLLEMIQQECYR (UniProt Q5VW36)	-0.0279	-0.0498
FLII_Q13045_560_KACSAIHAVNLR (UniProt Q13045)	-0.37	-0.31
FLII_Q13045_1257+1265_CFHAWSAFCK (UniProt Q13045)	0.0143	-0.116
G3BP2_Q9UN86_73_VLSLNFSECHTK (UniProt Q9UN86)	-0.00192	-0.0874
FYCO1_Q9BQS8_719_EGECQQLREEVEQCQQLAEAR (UniProt Q9BQS8)	-0.0603	-0.203
FRYL_O94915_2160_DCSNWINVVCR (UniProt O94915)	-0.093	0.113
FOXK1_P85037_439_SGGLQTPECLSR (UniProt P85037)	-0.0677	-0.3
FN3KRP_Q9HA64_24_ATGHSGGGCISQGR (UniProt Q9HA64)	-0.0578	-0.35
FLII_Q13045_119_NSGVPDDIFKLDDLSVLDLSHNQLTECPR (UniProt Q13045)	0.00979	-0.198
FZD6_O60353_123_WPEELECDR (UniProt O60353)	-0.074	0.0918
FYCO1_Q9BQS8_293_LTCLVAELQK (UniProt Q9BQS8)	-0.0779	0.119
FRMD8_Q9BZ67_206_LDSFLPAHLCK (UniProt Q9BZ67)	0.143	0.137
